# These are yes or no findings as the source states them, for the method shown. For part of these data: Binding can be weak; no strength is given.
# Amino acid sequences for entries named in this document (tags omitted). A change or cut given only in a name is not applied to a line headed by its entry.
# UniProt P0A031: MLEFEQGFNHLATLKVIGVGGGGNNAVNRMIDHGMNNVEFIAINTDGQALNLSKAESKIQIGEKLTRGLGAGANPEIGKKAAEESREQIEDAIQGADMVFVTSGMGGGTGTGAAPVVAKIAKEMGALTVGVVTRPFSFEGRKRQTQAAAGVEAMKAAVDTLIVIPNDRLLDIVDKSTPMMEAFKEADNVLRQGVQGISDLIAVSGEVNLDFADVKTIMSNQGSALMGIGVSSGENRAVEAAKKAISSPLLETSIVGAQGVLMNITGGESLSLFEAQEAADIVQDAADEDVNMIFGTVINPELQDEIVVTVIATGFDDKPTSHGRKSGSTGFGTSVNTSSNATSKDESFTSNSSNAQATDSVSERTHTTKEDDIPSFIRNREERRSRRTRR
# UniProt A0A0H2XHA0: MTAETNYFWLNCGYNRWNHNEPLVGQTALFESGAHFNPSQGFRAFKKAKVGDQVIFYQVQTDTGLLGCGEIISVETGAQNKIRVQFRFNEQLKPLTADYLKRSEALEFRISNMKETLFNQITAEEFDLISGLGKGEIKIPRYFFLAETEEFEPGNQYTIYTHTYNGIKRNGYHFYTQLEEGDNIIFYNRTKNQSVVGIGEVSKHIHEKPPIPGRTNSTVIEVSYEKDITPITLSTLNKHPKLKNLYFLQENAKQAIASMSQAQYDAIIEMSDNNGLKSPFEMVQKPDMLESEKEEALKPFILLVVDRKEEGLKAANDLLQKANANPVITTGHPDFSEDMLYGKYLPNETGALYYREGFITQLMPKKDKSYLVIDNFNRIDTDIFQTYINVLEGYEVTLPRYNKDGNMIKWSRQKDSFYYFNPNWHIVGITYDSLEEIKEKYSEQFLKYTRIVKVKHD
# Key:
# [1] = biological target: FtsZ (purified recombinant untagged S. aureus FtsZ) (S. aureus) (UniProt P0A031); experiment: co-sedimentation; with 2 mM GMPCPP; 30 μM FtsZ with or without PcdA (5 μM in the legend, 10 μM in the methods); 20 mM HEPES pH 7.5, 140 mM KCl, 5 mM MgCl2; 10 min at 37 °C, then 30 min at 129,000 × g; supernatant and pellet on SDS-PAGE, Coomassie; both purified
# [2] = biological target: FtsZ (purified recombinant untagged S. aureus FtsZ) (S. aureus) (UniProt P0A031); experiment: filter retention assay; without ATP, no GTP; 30 μM FtsZ and PcdA (5 μM in the legend, 10 μM in the methods) in reaction buffer, 15 min at room temperature; 100 kDa filter, 21,000 × g 10 min; flowthrough and retained fraction on SDS-PAGE, Coomassie; both purified
# [3] = biological target: FtsZ (purified recombinant untagged S. aureus FtsZ) (S. aureus) (UniProt P0A031); experiment: filter retention assay; with 2 mM ATP, no GTP; 30 μM FtsZ and PcdA (5 μM in the legend, 10 μM in the methods) in reaction buffer, 15 min at room temperature; 100 kDa filter, 21,000 × g 10 min; flowthrough and retained fraction on SDS-PAGE, Coomassie; both purified
substance,measurement,setting,value
PcdA (purified untagged recombinant) (from UniProt A0A0H2XHA0),binding,[1],binds
same,binding,[2],no binding (only without ATP)
same,binding,[3],binds

# Source: paper doi:10.1101/2023.09.03.556088, “Protein coopted from a phage restriction system dictates orthogonal cell division plane selection in Staphylococcus aureus” (bioRxiv, 2023)
